Data from the supplement of paper PMC8728848.
The list shows a part of the results.

Experiments:
Experiment in all cases: glycan array binding signal (z-score within array); higher = stronger binding
Conditions in all cases: glycan notation: IUPAC condensed, linker removed
[1] = target: Neu5Ac(a2-6)Gal(b1-4)GlcNAc(b1-2)Man(a1-3)[Neu5Ac(a2-3)Gal(b1-4)GlcNAc(b1-2)Man(a1-6)]Man(b1-4)GlcNAc(b1-4)GlcNAc
In short: (§1)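 Glycan array data were curated from 3228 arrays in the Consortium for Functional Glycomics database and kept only where the protein sequence was available. Glycan names were converted to IUPAC-condensed notation, and columns mapping to the same glycan were averaged. The binding signal is a within-array Z-score, averaged across arrays of the same protein sequence at different concentrations or buffers and across linkers. Negative Z-scores can be read as non-binding.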

[2] = target: Neu5Ac(a2-6)Gal(b1-4)GlcNAc(b1-2)Man(a1-3)[Neu5Ac(a2-6)Gal(b1-4)GlcNAc(b1-2)Man(a1-6)]Man(b1-4)GlcNAc(b1-4)GlcNAc
In short: as §1

[3] = target: Neu5Ac(a2-6)Gal(b1-4)GlcNAc(b1-2)Man(a1-3)[Neu5Ac(a2-6)Gal(b1-4)GlcNAc(b1-2)Man(a1-6)]Man(b1-4)GlcNAc(b1-4)[Fuc(a1-6)]GlcNAc
In short: as §1

[4] = target: Neu5Ac(a2-6)Gal(b1-4)GlcNAc(b1-2)Man(a1-6)Man(b1-4)GlcNAc(b1-4)GlcNAc
In short: as §1

[5] = target: Neu5Ac(a2-6)Gal(b1-4)GlcNAc(b1-2)Man(a1-6)[Gal(b1-4)GlcNAc(b1-2)Man(a1-3)]Man(b1-4)GlcNAc(b1-4)GlcNAc
In short: as §1

[6] = target: Neu5Ac(a2-6)Gal(b1-4)GlcNAc(b1-2)Man(a1-6)[GlcNAc(b1-2)Man(a1-3)]Man(b1-4)GlcNAc(b1-4)GlcNAc
In short: as §1

[7] = target: Neu5Ac(a2-6)Gal(b1-4)GlcNAc(b1-2)Man(a1-6)[Man(a1-3)]Man(b1-4)GlcNAc(b1-4)GlcNAc
In short: as §1

[8] = target: Neu5Ac(a2-6)Gal(b1-4)GlcNAc(b1-2)[Neu5Ac(a2-6)Gal(b1-4)GlcNAc(b1-4)]Man(a1-3)[GlcNAc(b1-4)][Neu5Ac(a2-6)Gal(b1-4)GlcNAc(b1-2)[Neu5Ac(a2-6)Gal(b1-4)GlcNAc(b1-6)]Man(a1-6)]Man(b1-4)GlcNAc(b1-4)GlcNAc
In short: as §1

[9] = target: Neu5Ac(a2-6)Gal(b1-4)GlcNAc(b1-2)[Neu5Ac(a2-6)Gal(b1-4)GlcNAc(b1-4)]Man(a1-3)[GlcNAc(b1-4)][Neu5Ac(a2-6)Gal(b1-4)GlcNAc(b1-4)Man(a1-6)]Man(b1-4)GlcNAc(b1-4)GlcNAc
In short: as §1

[10] = target: Neu5Ac(a2-6)Gal(b1-4)GlcNAc(b1-2)[Neu5Ac(a2-6)Gal(b1-4)GlcNAc(b1-6)]Man(a1-6)[Neu5Ac(a2-6)Gal(b1-4)GlcNAc(b1-2)Man(a1-3)][GlcNAc(b1-4)]Man(b1-4)GlcNAc(b1-4)GlcNAc
In short: as §1

[11] = target: Neu5Ac(a2-6)Gal(b1-4)GlcNAc(b1-3)Gal(b1-3)GlcNAc
In short: as §1

[12] = target: Neu5Ac(a2-6)Gal(b1-4)GlcNAc(b1-3)Gal(b1-4)GlcNAc
In short: as §1

[13] = target: Neu5Ac(a2-6)Gal(b1-4)GlcNAc(b1-3)Gal(b1-4)GlcNAc(b1-2)Man(a1-3)[Neu5Ac(a2-6)Gal(b1-4)GlcNAc(b1-3)Gal(b1-4)GlcNAc(b1-2)Man(a1-6)]GalNAc
In short: as §1

[14] = target: Neu5Ac(a2-6)Gal(b1-4)GlcNAc(b1-3)Gal(b1-4)GlcNAc(b1-3)Gal(b1-4)GlcNAc
In short: as §1

[15] = target: Neu5Ac(a2-6)Gal(b1-4)GlcNAc(b1-3)Gal(b1-4)GlcNAc(b1-3)Gal(b1-4)GlcNAc(b1-2)Man(a1-3)[Neu5Ac(a2-6)Gal(b1-4)GlcNAc(b1-3)Gal(b1-4)GlcNAc(b1-3)Gal(b1-4)GlcNAc(b1-2)Man(a1-6)]GalNAc
In short: as §1

[16] = target: Neu5Ac(a2-6)Gal(b1-4)GlcNAc(b1-3)Gal(b1-4)GlcNAc(b1-3)GalNAc
In short: as §1

[17] = target: Neu5Ac(a2-6)Gal(b1-4)GlcNAc(b1-3)Gal(b1-4)GlcNAc(b1-3)[Neu5Ac(a2-6)Gal(b1-4)GlcNAc(b1-3)Gal(b1-4)GlcNAc(b1-6)]GalNAc
In short: as §1

[18] = target: Neu5Ac(a2-6)Gal(b1-4)GlcNAc(b1-3)Gal(b1-4)GlcNAc(b1-6)[Gal(b1-3)]GalNAc
In short: as §1

[19] = target: Neu5Ac(a2-6)Gal(b1-4)GlcNAc(b1-3)Gal(b1-4)[Fuc(a1-3)]GlcNAc(b1-3)Gal(b1-4)[Fuc(a1-3)]GlcNAc
In short: as §1

[20] = target: Neu5Ac(a2-6)Gal(b1-4)GlcNAc(b1-3)GalNAc
In short: as §1

[21] = target: Neu5Ac(a2-6)Gal(b1-4)GlcNAc(b1-3)[Neu5Ac(a2-6)Gal(b1-4)GlcNAc(b1-6)]GalNAc
In short: as §1

[22] = target: Neu5Ac(a2-6)Gal(b1-4)GlcNAc(b1-6)GalNAc
In short: as §1

[23] = target: Neu5Ac(a2-6)Gal(b1-4)GlcNAc(b1-6)[Gal(b1-3)GlcNAc(b1-3)]Gal(b1-4)Glc
In short: as §1

[24] = target: Neu5Ac(a2-6)Gal(b1-4)GlcNAc(b1-6)[Gal(b1-3)]GalNAc
In short: as §1

[25] = target: Neu5Ac(a2-6)Gal(b1-4)GlcNAc6S
In short: as §1

Neu5Ac(a2-6)GalNAc = target: Neu5Ac(a2-6)GalNAc
In short: as §1

[26] = target: Neu5Ac(a2-6)GalNAc(b1-4)GlcNAc
In short: as §1

[27] = target: Neu5Ac(a2-6)GalNAc(b1-4)GlcNAc6S
In short: as §1

[28] = target: Neu5Ac(a2-6)GlcNAc(b1-4)GlcNAc
In short: as §1

[29] = target: Neu5Ac(a2-6)GlcNAc(b1-4)GlcNAc(b1-4)GlcNAc
In short: as §1

B1: Epa3to2 (Candida glabrata) (protein)
chain: MGSSHHHHHHSSGLVPRGSHMKRELSSQNPFGYPIGCSPQDVAIIPGLTMELYSYPIVSGTPPNCYDASYVDPEYPRTGYLKRKMVGKSTGVTGNLNYKYSVEKACMVKYGNLPAGYNYNEPLTVSNFTMILYGYFKAQTTGLHTFFVNADDLLYINFGAGNAFDCCKREDSKTKLGEYVAYDIWHVDSSKNKVSLFLEKDLYYPIRMFFNNRDNNSSLDLSFSVNGATDQISDFSGYLYSVPDQPDTCPAHIGYDTTCR
glycan array binding signal (z-score) [1]: 0.139 | glycan array binding signal (z-score) [2]: -0.587 | glycan array binding signal (z-score) [3]: 0.435 | glycan array binding signal (z-score) [4]: 0.353 | glycan array binding signal (z-score) [5]: -0.632 | glycan array binding signal (z-score) [6]: 1.21 | glycan array binding signal (z-score) [7]: -1.41 | glycan array binding signal (z-score) [8]: -0.941 | glycan array binding signal (z-score) [9]: 1.14 | glycan array binding signal (z-score) [10]: -0.053 | glycan array binding signal (z-score) [11]: 1.5 | glycan array binding signal (z-score) [12]: 0.051 | glycan array binding signal (z-score) [13]: -1.11 | glycan array binding signal (z-score) [14]: -0.275 | glycan array binding signal (z-score) [15]: 0.127 | glycan array binding signal (z-score) [16]: 0.077 | glycan array binding signal (z-score) [17]: 0.333 | glycan array binding signal (z-score) [18]: -0.986 | glycan array binding signal (z-score) [19]: 0.521 | glycan array binding signal (z-score) [20]: 0.516 | glycan array binding signal (z-score) [21]: 1.36 | glycan array binding signal (z-score) [22]: -0.131 | glycan array binding signal (z-score) [23]: 0.007 | glycan array binding signal (z-score) [24]: -0.973 | glycan array binding signal (z-score) [25]: -0.651 | glycan array binding signal (z-score) (Neu5Ac(a2-6)GalNAc): 0.437 | glycan array binding signal (z-score) [26]: -0.698 | glycan array binding signal (z-score) [27]: -1.08 | glycan array binding signal (z-score) [28]: -0.614 | glycan array binding signal (z-score) [29]: -1.01
